Results as given in patent publication US10588934B2, “Opioid peptide” (priority 2014, dated 2020).
Read-outs that look alike come from different tables or passages of the source. At least one peptide structure holds a part that was inferred or is arguable (an end, a ring closure or a residue). Ends that are not written are not given here.

What was measured:
Swiss mice [1] = assay: Tail flick (tail removal) nociception test; format: in vivo, Mus musculus
Description: (§1) In vivo analyzes: Tests were carried out on Swiss mice of the Mus musculus species, in which nociception tests (hot plate and tail removal test) were used according to Le Bars et al. (2001). Injections were administered via intraperitoneal (IP). Doses were based upon dose and molaridade of the morphine (10 mg/kg animal).
(§2) FIGS. 1,2,3 and 4 represent the raw data obtained from the experiments after statistical analysis. The symbols (*, **, #) indicate the beginning of the statistically significant activity (S) or the statistically non-significant differences (NS). Analyzes of opioid activity were performed in two classical models of studies for this activity: Tail Flick or Hot Plate test.

Swiss mice [2] = format: in vivo, Mus musculus
Description: as §1, §2

For YPFKWGGVPP [SEQ ID NO: 2], the “cumulative effect over time (area under the curve)” value (Swiss mice [1]; tail flick, compared with morphine and Leu-enkephalin) was “lower cumulative effect to morphine and Leu-enkephalin”, the “time from which there was no significant difference from Leu-enkephalin (peptide positive control)” value (Swiss mice [1]; tail-flick, IP, Leu-enkephalin 19.3 mg/kg, P>0.05) was 60 min and the “time at which statistically significant antinociceptive action started, in relation to saline” value (Swiss mice [1]; tail-flick, IP, dose equimolar to morphine 10 mg/kg, test of 240 min) was 90 min. For the same sequence, the “time from which there was no significant difference from morphine (positive control)” value (Swiss mice [1]; tail-flick, IP, morphine 10 mg/kg) was 120 min, the “time up to which the significant antinociceptive action lasted, in relation to saline” value (Swiss mice [1]; tail-flick, IP, test of 240 min) was “lasted until the end of the test, except for the time of 150 minutes” and the “difference between peptide alone and peptide+naloxone (naloxone reversal)” value (Swiss mice [1]; tail-flick, serial hourly naloxone 4 mg/kg, P<0.001) was “From 60 minutes there was a significant difference”. For the same sequence, the “activity profile of the group given substance+naloxone compared with saline” value (Swiss mice [1]; tail-flick, with serial naloxone 4 mg/kg) was “no significant differences in activity profile”, the “time from which there were no statistically significant differences from morphine” value (Swiss mice [2]; hot plate, IP, morphine 10 mg/kg, P>0.05) was “during the entire assay” and the “persistence of the significant difference in relation to saline” value (Swiss mice [2]; hot plate, IP, test of 240 min) was “persisted throughout the test”. For the same sequence, the “time at which statistically significant antinociceptive activity started, in relation to saline” value (Swiss mice [2]; hot plate, IP, test of 240 min) was “Since the beginning of the test”, the “difference between peptide alone and peptide+naloxone (naloxone reversal)” value (Swiss mice [2]; hot plate, serial naloxone 4 mg/kg, later discontinued) was “At 180 minutes to 240 minutes there were no statistically significant differences” and the “activity profile of the group given substance+naloxone compared with saline” value (Swiss mice [2]; hot plate, with serial naloxone 4 mg/kg) was “no significant differences in activity profile”. The “difference from Leu-enkephalin” value (Swiss mice [2]; mouse, in vivo) was “did not show statistically significant differences”.
